Experimental data: PubChem BioAssay AID504804 (Drosophila RNAi Screening Center, 2011)
The deposit covers about 19,000 reagents; this is an unselected part of those with a known target gene and a result. In the full data, 47 (0.25%) are marked active. 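Signals are raw, not normalised; exact z-scores behind calls not deposited; actives needed confirmation, so some wells reaching 2 SD are inactive.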 Unmarked entries are inactive. Reagent sequences are not shown.

- Test: 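dsRNAs that improve Kc cell survival under doxorubicin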 (primary screen)
- Cells: Drosophila Kc cells
- Reagents: long dsRNA against Drosophila genes, 0.5 µg dsRNA per well
- Time to read-out: 96 h (48 h knock-down, then 48 h drug)
- Challenge: doxorubicin 5 µg/ml for 48 h, added 48 h after dsRNA
- Measured: 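Luminescent ATP counts per replicate, not normalised, reflecting viable cells after 48 h dsRNA knock-down followed by 48 h of 5 µg/ml doxorubicin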
- Scale: raw ATP luminescence: higher = more viable cells, protection from doxorubicin
- Call rule: 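z-score of 2 or more over plate mean in both duplicates, retained only when retests and separate dsRNAs confirm the protection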

Against CG31300 [DRSC14657], the entry reads raw ATP luminescence, replicate 1 = 86700; raw ATP luminescence, replicate 2 = 70710.
After knock-down of klhl10 [DRSC05274] the results were raw ATP luminescence, replicate 1 = 65073; raw ATP luminescence, replicate 2 = 82190.
After knock-down of klhl10 [DRSC19171], the record shows raw ATP luminescence, replicate 1 = 2.81e5; raw ATP luminescence, replicate 2 = 2.71e5.
klhl10 [DRSC20750] gave raw ATP luminescence, replicate 1 = 3.16e5; raw ATP luminescence, replicate 2 = 3.18e5.
After knock-down of klhl10 [DRSC20925] the results were raw ATP luminescence, replicate 1 = 2.08e5; raw ATP luminescence, replicate 2 = 1.78e5.
With knock-down of CG2574 [DRSC19862] the results were raw ATP luminescence, replicate 1 = 4.17e5; raw ATP luminescence, replicate 2 = 3.33e5.
Knock-down of Ilp2 [DRSC10968] came out at: raw ATP luminescence, replicate 1 = 39683; raw ATP luminescence, replicate 2 = 38870.
For ubl [DRSC04998] the deposit lists raw ATP luminescence, replicate 1 = 38053; raw ATP luminescence, replicate 2 = 89500.
With knock-down of CG12971 [DRSC11681] the results were raw ATP luminescence, replicate 1 = 56323; raw ATP luminescence, replicate 2 = 51897.
Against FarO [DRSC18475], the entry reads raw ATP luminescence, replicate 1 = 57470; raw ATP luminescence, replicate 2 = 48300.
cyc [DRSC11337] gave raw ATP luminescence, replicate 1 = 56507; raw ATP luminescence, replicate 2 = 51267.
Against ND-B17 [DRSC01981] the deposit lists raw ATP luminescence, replicate 1 = 74623; raw ATP luminescence, replicate 2 = 84020.

2 entries from above in another layout:
{"predicted target":"klhl10","amplicon":"DRSC19171","raw ATP luminescence, replicate 1":2.81e5,"raw ATP luminescence, replicate 2":2.71e5}
{"predicted target":"klhl10","amplicon":"DRSC20750","raw ATP luminescence, replicate 1":3.16e5,"raw ATP luminescence, replicate 2":3.18e5}

Next results follow:
Against CG11902 [DRSC14434], the values are raw ATP luminescence, replicate 1 = 75040; raw ATP luminescence, replicate 2 = 64490.
Silencing of CG15145 [DRSC02446] gave: raw ATP luminescence, replicate 1 = 76130; raw ATP luminescence, replicate 2 = 79237.
With knock-down of Pif1A [DRSC12708], the record shows raw ATP luminescence, replicate 1 = 70433; raw ATP luminescence, replicate 2 = 58227.
Silencing of Pif1A [DRSC14383] gave: raw ATP luminescence, replicate 1 = 52133; raw ATP luminescence, replicate 2 = 54240.
After knock-down of milt [DRSC00965] the results were raw ATP luminescence, replicate 1 = 2.60e5; raw ATP luminescence, replicate 2 = 2.44e5.
Silencing of milt [DRSC00966] resulted in: raw ATP luminescence, replicate 1 = 3.02e5; raw ATP luminescence, replicate 2 = 2.67e5.
For milt [DRSC02281], the values are raw ATP luminescence, replicate 1 = 1.20e5; raw ATP luminescence, replicate 2 = 61673.
tobi [DRSC14435] gave raw ATP luminescence, replicate 1 = 60750; raw ATP luminescence, replicate 2 = 55340.
CG5160 [DRSC02821] showed raw ATP luminescence, replicate 1 = 26983; raw ATP luminescence, replicate 2 = 21887.
With knock-down of CG11379 [DRSC18629], the screen gave raw ATP luminescence, replicate 1 = 66940; raw ATP luminescence, replicate 2 = 50220.
For lin [DRSC07644], the values are raw ATP luminescence, replicate 1 = 37260; raw ATP luminescence, replicate 2 = 91293.
With knock-down of slow [DRSC08589] the results were raw ATP luminescence, replicate 1 = 34633; raw ATP luminescence, replicate 2 = 34337.
slow [DRSC08590] gave raw ATP luminescence, replicate 1 = 77317; raw ATP luminescence, replicate 2 = 70697.
With knock-down of Dlg5 [DRSC02964] the results were raw ATP luminescence, replicate 1 = 72300; raw ATP luminescence, replicate 2 = 63663.
CG7381 [DRSC16238] gave raw ATP luminescence, replicate 1 = 50197; raw ATP luminescence, replicate 2 = 30603.
Depletion of CG3746 [DRSC04412] resulted in: raw ATP luminescence, replicate 1 = 63717; raw ATP luminescence, replicate 2 = 49720.
